Measurements reported in PubChem BioAssay AID602196 (INSERM, 2012).
Shown is a random part of about 23,000 reagents. 455 of them (2%) count as active. 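Active includes both protection and sensitisation; some change values fall well beyond the stated -50 to +50 range.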 Reagent sequences are not shown. Not stated in the record: the amount of reagent.

Aim: 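Knock-downs that protect lung cancer cells from cisplatin or sensitise them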
Cell system: human A549 lung cancer cells
Reagent: siRNA pair against human genes
Timing: 48 h transfection before cisplatin; time from cisplatin to read-out not stated
Challenge: cisplatin at a dose killing half of control-siRNA cells; exact dose and duration not given
Detection: 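Shift in cisplatin death relative to control siRNA, from -50 (all cells die) to +50 (no cells die); siRNAs harmful on their own scored 0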
Direction: two-siRNA summed score (-2 to +2): higher = both siRNAs protect from cisplatin killing; -2 means both sensitise; mean protection from cisplatin (shift in death) and protection from cisplatin (shift in death), siRNA C and protection from cisplatin (shift in death), siRNA D: higher = protection from cisplatin killing
Active means: 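siRNAs harmful alone (LDH or WST-1) get 0; others get +1 for less and -1 for more cisplatin killing; genes are active when the two siRNAs give the same sign, summing to ±2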
Calls: active = both siRNAs shift cisplatin killing the same way; inactive = no consistent shift, or siRNA harmful alone

The first 2 entries as a preview:
| Target gene | two-siRNA summed score (-2 to +2) | mean protection from cisplatin (shift in death) (%) | protection from cisplatin (shift in death), siRNA C (%) | protection from cisplatin (shift in death), siRNA D (%) | call |
| --- | --- | --- | --- | --- | --- |
| ZER1 | 1 | 14.4 | 6.5 | 22.2 | inactive |
| TBC1D3F | 0 | 4.3 | 3 | 5.6 | inactive |

The listing, repeating the preview:
| Target gene | two-siRNA summed score (-2 to +2) | mean protection from cisplatin (shift in death) (%) | protection from cisplatin (shift in death), siRNA C (%) | protection from cisplatin (shift in death), siRNA D (%) | call |
| --- | --- | --- | --- | --- | --- |
| ZER1 | 1 | 14.4 | 6.5 | 22.2 | inactive |
| TBC1D3F | 0 | 4.3 | 3 | 5.6 | inactive |
| MIOS | 0 | 3.2 | -3.6 | 10.1 | inactive |
| LSM14A | 1 | 11.4 | 1 | 21.9 | inactive |
| LOC441093 | 0 | -4 | -0.7 | -7.4 | inactive |
| IL21 | -1 | -24.2 | -15.4 | -33 | inactive |
| GRIA3 | -2 | -28.2 | -23.2 | -33.3 | active |
| PITRM1 | -1 | -1.2 | 5.8 | -8.2 | inactive |
| MEST | 0 | 1.7 | 5.3 | -1.9 | inactive |
| OVCA2 | 0 | -0.6 | -6.1 | 4.9 | inactive |
| TSEN54 | 0 | -8.1 | -5.3 | -10.8 | inactive |
| FXR1 | -1 | -17.4 | -17.7 | -17.2 | inactive |
| U2AF1L4 | 0 | 2.4 | 6.1 | -1.3 | inactive |
| PAQR9 | 0 | -7.6 | -1 | -14.2 | inactive |
| CDC42SE2 | 0 | 8 | 13.2 | 2.9 | inactive |
| GLUL | 1 | 3.4 | -7 | 13.8 | inactive |
| PDZD8 | 0 | 10.9 | 9.7 | 12.1 | inactive |
| LOC131149 | 0 | 5.1 | 11.2 | -1.1 | inactive |
| IRGM | 0 | 10.1 | 15.3 | 4.8 | inactive |
| OR4F4 | 0 | 3.6 | 6.1 | 1.1 | inactive |
| NRL | -1 | -6.6 | 4.8 | -18.1 | inactive |
| SEC23IP | 2 | 14.7 | 7.9 | 21.6 | active |
| LOC389167 | 1 | 11.2 | 12.8 | 9.6 | inactive |
